Results published in paper PMC10516654, “Structural and functional characterization of MrpR, the master repressor of the Bacillus subtilis prophage SPβ”.

Biological target: T1, MrpR G136E (Bacillus subtilis prophage SPβ c2) (UniProt O34558)
T1 sequence (looked up, limits assumed): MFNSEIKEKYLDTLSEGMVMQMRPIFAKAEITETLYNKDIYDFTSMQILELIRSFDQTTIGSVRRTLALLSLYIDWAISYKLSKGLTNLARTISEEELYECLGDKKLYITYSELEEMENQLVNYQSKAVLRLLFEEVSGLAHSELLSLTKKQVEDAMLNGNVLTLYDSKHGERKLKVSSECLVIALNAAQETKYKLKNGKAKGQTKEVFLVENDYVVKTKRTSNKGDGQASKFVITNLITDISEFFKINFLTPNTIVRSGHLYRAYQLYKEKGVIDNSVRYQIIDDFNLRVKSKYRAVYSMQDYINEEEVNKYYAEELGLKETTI
Experiment: EMSA
Conditions: herring sperm DNA, EMSA: same buffer plus 50 ug/ml herring sperm DNA, RT 15 min, recombinant protein, probe letters rebuilt from the primers and the genome

Row | Sequence | binding result (comparable shift needs approx. 10- to 20-fold excess over 50 nM DNA, 6% native PAGE 0.5x TBE, protein details: C-terminal His6, label: Dyomics 781 at 5' end of reverse primer) | binding result (shift only at DNA:protein 1:100 (50 nM DNA), 6% native PAGE 0.5x …, protein details: C-terminal His6, label: Cy3 at 5' end of forward primer)
1 | CAGCATACTCCAATGCACTTCTTGCTGCCTTTGTCTTAACATCTAGGTTTAAACAGTAATCTTTCATTAATTCATATTCACGGTCTGGATACTGACTCTTAACAATGTTGACTATTGAAGAAAATTCATTAAATGTTTTCCCATCATGGTTTAAGAAGTCATAAAGAGGATTGGGGTTTTTAAGGCCAGCTACTGTTGCCCATTTATTCATTAAAGAGTTGTCATTTTCCAAGTCTTTCTTCATAGCTATCCTTATTAACTCCATTATTTCCCCTCATTTCTTTTTGTTGTCTTTATTGGTTAACTTAATAATACTATAGATCACATTACGAGTCAATTATTTTATACATATTTTTTGTATTTGTAATCTCTTTAAAATTCCAATTTTAACTAGACACAATGAGGACTAAACCTCATTGTGTTCTTCTAAAGCAAAAGGTCCTACTTAAGGCTATAATACACCTCTTCCGCAATATCCTTTGCAAACCTAGCGAAAATTTCTCTATCAAAACTTCTTAAGCATTTAGCTAAGGACAGGATATTCTGCACATGGTCAAGTGTATTAGTCAAATCTAATGCCGTTACCAAAGAAAGCAACATGTCTTTGTAGTTCATATCTCCGGC (double strand) [PaimR EMSA fragment with SPBRE] | binds more weakly | –
2 | CTTTTGTAATAGCAGCCGATTGTAATGTCAATGTAGCTGCATCGTCTATTGACATGAAAAATCTGGTCATGTTTTTGTCTGTGATGGTCAGAGGTTCACCCTCCATCATCTGTTCAAATAATATGGGGATGACCGAACCTCTGGAACCGAGAACATTTCCAAAGCGGACCGAACAAAACAAGGTTCCTTTGTTTTGGACGTGGCGGTTTGCTTGATGAAACAGCTTTTCAGATAACAGCTTGGTGGCACCCATTGTGTTCACAGGAGATACAGCTTTATCTGTTTTTTAAGATACTTACTACTTTTCTTAGTGGAAACTATTAGTGGCTGTGAGGTCAAAAATGAAATTAAACCTTAGGATAGGGGTTATTTCAAATTGAGCTGGTATAGGCCCTTTTCTTTTTTGTGTCATGTTAACAATAACATCTTTTAAGACCATCCTTAATAGCTCGTTCTTTTTCTCTGAGCTTGATTCAATGTGATACTGGTCAATTATTTTATTTATGTTGTTTCTCACTGTATTACTGTCTATTTCTGATTGTGTATCTTGTAATCCATTGAGCTCATTCTTTGCATTCTGGAGCTCTTTAAATTCTTCATCTAATGCAGC (double strand) [attR EMSA fragment (no SPBRE)] | – | binds more weakly

Construct, isoform or probe ends are uncertain for at least one entry. A weaker result is weaker than the reference pair of the same experiment. Protein sequences can lack the tags named with them.
